Among the data in paper PMC10682394, “A papain-like cysteine protease-released small signal peptide confers wheat resistance to wheat yellow mosaic virus” (Nature Communications, 2023) are binding values, retold here.

These are yes or no findings as the source states them, for the method shown. Tags and fused reporters may be left off the sequences shown.

The assay has as its target TaRD21A^S without signal peptide (TaRD21A^S-ΔSP), GAL4 DNA-binding domain fusion (wheat (Triticum aestivum)). The assay can be described thus: two-hybrid; AH109 yeast; TaRD21A^S-ΔSP in the GAL4 DNA-binding domain (pGBKT7), WYMV proteins in the GAL4 activation domain (pGADT7); selective medium SD/-Trp-Leu-His-Ade/X-α-GAL, dilutions 10^0 to 10^-4.

B1: WYMV P3, GAL4 activation domain fusion (protein, UniProt Q9YJW3 1-328)
chain: MEQTLAQAVSRRNKTDTPMAEERKHFSPMNFSANFVAPELFYSANVRKIKNIFKERSTTRFLDAISSDFELVAFLTLSPAHLMQLETVLRQEMRSCAVPIVTSDASFETVAVIKTALDGMRFHFGYTTLEKGWISMMRHAESCLQESSSSAVNDLQTPIKRVGSLLLSGKNRVEGCELSVLNLTARRFRIEYGLNGTYFGEHVAMLRDLKRYIYGTVPKEFLWAKTKKHLPFTIPAWITRTPIDCFLFCLRVIPILHRFGVAMSLIYFSCVAALNFPAFMGFLFKRQFAKYLAHSFAKHSIYFMFLTIVAILWSFRTFTSQKPKIVLQ
In the case of B1, the binding entry is on record as “no binding”.
